Laboratory results reported in publication doi:10.1101/695577.
These are yes or no findings as the source states them, for the method shown. In cells and extracts the contact can be indirect. A yes stands for co-enrichment or nearness to the bait. Other partners may have been found. Tags and fused reporters may be left off the sequences shown.

T1: EGFP-ORP5 (UniProt Q9H0X9)
T1 sequence: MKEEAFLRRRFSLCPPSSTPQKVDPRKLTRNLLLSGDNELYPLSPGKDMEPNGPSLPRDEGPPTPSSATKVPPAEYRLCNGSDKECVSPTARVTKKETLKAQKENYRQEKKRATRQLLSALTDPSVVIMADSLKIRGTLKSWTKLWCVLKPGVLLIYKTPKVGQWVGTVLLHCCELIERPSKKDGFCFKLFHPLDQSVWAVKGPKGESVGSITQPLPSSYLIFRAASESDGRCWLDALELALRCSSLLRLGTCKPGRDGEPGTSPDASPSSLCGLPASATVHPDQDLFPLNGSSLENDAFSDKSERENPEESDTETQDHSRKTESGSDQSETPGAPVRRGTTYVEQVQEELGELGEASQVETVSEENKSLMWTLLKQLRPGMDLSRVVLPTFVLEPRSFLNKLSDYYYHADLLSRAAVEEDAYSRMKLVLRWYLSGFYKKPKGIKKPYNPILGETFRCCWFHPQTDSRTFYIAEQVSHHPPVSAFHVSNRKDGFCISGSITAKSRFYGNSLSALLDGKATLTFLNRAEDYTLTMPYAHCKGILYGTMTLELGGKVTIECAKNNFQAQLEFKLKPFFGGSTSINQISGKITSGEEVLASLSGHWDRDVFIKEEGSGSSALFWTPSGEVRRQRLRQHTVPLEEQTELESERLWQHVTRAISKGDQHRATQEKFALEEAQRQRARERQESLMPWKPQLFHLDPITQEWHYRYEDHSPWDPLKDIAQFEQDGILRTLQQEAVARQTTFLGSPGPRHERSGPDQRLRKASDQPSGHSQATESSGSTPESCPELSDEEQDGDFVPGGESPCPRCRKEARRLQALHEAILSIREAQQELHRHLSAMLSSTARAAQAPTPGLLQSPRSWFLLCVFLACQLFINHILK


Target: T1, EGFP-ORP5
Test: affinity purification with mass spectrometry

| binding | Binder |
| --- | --- |
| binds | ORP8 (endogenous) (protein, UniProt Q9BZF1 1-889) MEGGLADGEPDRTSLLGDSKDVLGPSTVVANSDESQLLTPGKMSQRQGKEAYPTPTKDLHQPSLSPASPHSQGFERGKEDISQNKDESSLSMSKSKSESKLYNGSEKDSSTSSKLTKKESLKVQKKNYREEKKRATKELLSTITDPSVIVMADWLKIRGTLKSWTKLWCVLKPGVLLIYKTQKNGQWVGTVLLNACEIIERPSKKDGFCFKLFHPLEQSIWAVKGPKGEAVGSITQPLPSSYLIIRATSESDGRCWMDALELALKCSSLLKRTMIREGKEHDLSVSSDSTHVTFYGLLRANNLHSGDNFQLNDSEIERQHFKDQDMYSDKSDKENDQEHDESDNEVMGKSEESDTDTSERQDDSYIEPEPVEPLKETTYTEQSHEELGEAGEASQTETVSEENKSLIWTLLKQVRPGMDLSKVVLPTFILEPRSFLDKLSDYYYHADFLSEAALEENPYFRLKKVVKWYLSGFYKKPKGLKKPYNPILGETFRCLWIHPRTNSKTFYIAEQVSHHPPISAFYVSNRKDGFCLSGSILAKSKFYGNSLSAILEGEARLTFLNRGEDYVMTMPYAHCKGILYGTMTLELGGTVNITCQKTGYSAILEFKLKPFLGSSDCVNQISGKLKLGKEVLATLEGHWDSEVFITDKKTDNSEVFWNPTPDIKQWRLIRHTVKFEEQGDFESEKLWQRVTRAINAKDQTEATQEKYVLEEAQRQAARDRKTKNEEWSCKLFELDPLTGEWHYKFADTRPWDPLNDMIQFEKDGVIQTKVKHRTPMVSVPKMKHKPTRQQKKVAKGYSSPEPDIQDSSGSEAQSVKPSTRRKKGIELGDIQSSIESIKQTQEEIKRNIMALRNHLVSSTPATDYFLQQKDYFIIFLLILLQVIINFMFK |
| binds | SAM50 (endogenous) (protein, UniProt Q9Y512 1-469) MGTVHARSLEPLPSSGPDFGGLGEEAEFVEVEPEAKQEILENKDVVVQHVHFDGLGRTKDDIIICEIGDVFKAKNLIEVMRKSHEAREKLLRLGIFRQVDVLIDTCQGDDALPNGLDVTFEVTELRRLTGSYNTMVGNNEGSMVLGLKLPNLLGRAEKVTFQFSYGTKETSYGLSFFKPRPGNFERNFSVNLYKVTGQFPWSSLRETDRGMSAEYSFPIWKTSHTVKWEGVWRELGCLSRTASFAVRKESGHSLKSSLSHAMVIDSRNSSILPRRGALLKVNQELAGYTGGDVSFIKEDFELQLNKQLIFDSVFSASFWGGMLVPIGDKPSSIADRFYLGGPTSIRGFSMHSIGPQSEGDYLGGEAYWAGGLHLYTPLPFRPGQGGFGELFRTHFFLNAGNLCNLNYGEGPKAHIRKLAECIRWSYGAGIVLRLGNIARLELNYCVPMGVQTGDRICDGVQFGAGIRFL |
